One substance from article PMC5222588, “Binding of Myomesin to Obscurin-Like-1 at the Muscle M-Band Provides a Strategy for Isoform-Specific Mechanical Protection” (Structure(London, England:1993), 2017) can be followed below.

Chains of the proteins cited; added tags and fusions are not shown. Lines headed by an entry give the natural chain unless they say otherwise; changes in a name come on top.
UniProt P52179: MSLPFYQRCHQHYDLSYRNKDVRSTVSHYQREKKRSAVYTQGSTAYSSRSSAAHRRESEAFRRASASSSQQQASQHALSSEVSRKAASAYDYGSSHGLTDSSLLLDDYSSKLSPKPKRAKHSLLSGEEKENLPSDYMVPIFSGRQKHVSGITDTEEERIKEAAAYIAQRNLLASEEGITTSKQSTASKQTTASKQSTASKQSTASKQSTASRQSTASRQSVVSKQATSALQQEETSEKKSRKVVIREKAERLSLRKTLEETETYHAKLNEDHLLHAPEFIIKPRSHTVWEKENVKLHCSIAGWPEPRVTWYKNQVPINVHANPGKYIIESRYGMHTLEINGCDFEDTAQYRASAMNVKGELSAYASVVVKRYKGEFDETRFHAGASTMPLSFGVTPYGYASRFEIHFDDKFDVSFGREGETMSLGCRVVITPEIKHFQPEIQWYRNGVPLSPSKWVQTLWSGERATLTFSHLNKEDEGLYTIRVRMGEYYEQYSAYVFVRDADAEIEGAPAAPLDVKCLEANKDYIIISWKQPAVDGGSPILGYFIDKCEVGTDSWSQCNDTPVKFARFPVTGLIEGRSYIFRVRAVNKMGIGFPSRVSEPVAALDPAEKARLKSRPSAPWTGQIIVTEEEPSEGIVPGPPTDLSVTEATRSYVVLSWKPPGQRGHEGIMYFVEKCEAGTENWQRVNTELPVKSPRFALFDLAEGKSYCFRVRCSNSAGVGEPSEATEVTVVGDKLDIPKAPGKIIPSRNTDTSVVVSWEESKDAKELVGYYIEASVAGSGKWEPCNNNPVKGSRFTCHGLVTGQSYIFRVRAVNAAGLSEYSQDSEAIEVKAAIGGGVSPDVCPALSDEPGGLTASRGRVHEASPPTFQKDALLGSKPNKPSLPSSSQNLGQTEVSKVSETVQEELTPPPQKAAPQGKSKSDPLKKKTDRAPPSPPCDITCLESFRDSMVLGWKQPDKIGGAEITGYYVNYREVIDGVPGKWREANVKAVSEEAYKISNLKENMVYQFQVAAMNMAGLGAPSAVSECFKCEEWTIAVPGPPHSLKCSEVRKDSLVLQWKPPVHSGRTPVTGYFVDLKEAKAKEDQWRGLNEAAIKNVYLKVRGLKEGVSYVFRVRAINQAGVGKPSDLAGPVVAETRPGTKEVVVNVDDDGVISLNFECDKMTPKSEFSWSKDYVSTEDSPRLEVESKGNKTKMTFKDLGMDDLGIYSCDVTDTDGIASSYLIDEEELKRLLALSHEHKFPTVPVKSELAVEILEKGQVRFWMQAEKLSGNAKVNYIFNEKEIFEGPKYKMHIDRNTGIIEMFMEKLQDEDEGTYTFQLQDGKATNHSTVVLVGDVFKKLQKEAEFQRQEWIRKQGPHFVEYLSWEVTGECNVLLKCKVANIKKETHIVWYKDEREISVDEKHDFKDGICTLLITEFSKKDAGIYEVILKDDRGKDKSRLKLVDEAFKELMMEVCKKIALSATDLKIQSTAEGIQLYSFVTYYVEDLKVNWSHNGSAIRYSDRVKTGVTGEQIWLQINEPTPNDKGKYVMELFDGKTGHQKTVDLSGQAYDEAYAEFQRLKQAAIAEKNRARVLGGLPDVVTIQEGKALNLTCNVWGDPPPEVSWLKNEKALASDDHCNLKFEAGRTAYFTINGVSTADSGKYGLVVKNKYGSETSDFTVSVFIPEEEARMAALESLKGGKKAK

This test addresses T1, obscurin-like-1 third immunoglobulin domain (OL3) (human) (UniProt O75147).
T1 sequence: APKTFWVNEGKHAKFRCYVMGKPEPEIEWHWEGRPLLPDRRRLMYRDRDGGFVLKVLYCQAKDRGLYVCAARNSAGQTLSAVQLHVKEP
Kind of test: SAXS; 0.5–4.5 mg/mL in 20 mM HEPES pH 7.5, 500 mM NaCl, 1 mM DTT; 18°C; BM29 (ESRF); both purified.

No constants are given. Whether binding was seen depends on the method and setting. Binding can be weak; no strength is given.

On to “myomesin My4L (fourth Fn-III domain with the linker L) (from UniProt P52179) (domain or fragment)”, for which the binding result is on record as “binds”.
